Measurements reported in PubChem BioAssay AID1259424 (University of Nebraska Medical Center, 2018).
Shown is an unselected part of about 14,000 reagents. 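Higher correlation or smaller distance means closer resemblance to KSR1 loss; control wells, including KSR1 knockdowns, recur on many plates.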 Reagent sequences are not shown. The record does not give: the time to read-out.

Purpose: 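Find knockdowns that reproduce the expression shifts seen after KSR1 loss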 (primary screen)
Cell system: human HCT116 colon cancer cells
Reagent: siRNA pool against human genes, 50 nM
Measured: 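Six signature mRNAs by branched-DNA multiplex assay, scaled to two housekeeping genes and non-targeting median, log2; matched to mean KSR1 knockdown profile by Pearson correlation and euclidean distance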
Direction: mean correlation with KSR1 profile and KSR1 correlation: higher = expression change more like KSR1 knockdown; mean distance from KSR1 profile: higher = expression change less like KSR1 knockdown

gene knocked down	mean correlation with KSR1 profile	mean distance from KSR1 profile	KSR1 correlation, replicate 1	KSR1 correlation, replicate 2	KSR1 correlation, replicate 3
RIOX1 (GeneID 79697)	0.234	1.78	0.198	0.513	0.00999
CTNS (GeneID 1497)	-0.0997	1.19	-0.638	0.228	-0.0271
CES1P1 (GeneID 51716)	0.335	2.34	0.372	0.48	0.483
VPS8 (GeneID 23355)	0.267	2.09	0.251	0.0879	0.268
RTRAF (GeneID 51637)	-0.354	2.97	-0.125	-0.399	-0.49
SGTA (GeneID 6449)	-0.329	2.08	-0.322	-0.306	-0.171
EPHA8 (GeneID 2046)	0.208	1.76	0.116	-0.218	0.248
EIF4EBP1 (GeneID 1978)	-0.341	1.86	0.142	-0.499	-0.301
ATP8A2 (GeneID 51761)	-0.0146	1.72	0.022	0.0157	-0.0841
ZNF654 (GeneID 55279)	-0.626	1.44	-0.438	-0.645	-0.734
TMEM131 (GeneID 23505)	0.0998	1.85	0.236	-0.041	0.0975
AQP6 (GeneID 363)	0.0496	1.28	0.164	0.0462	0.209
FGFR1OP2 (GeneID 26127)	-0.644	2.57	-0.539	-0.54	-0.67
CDC42SE2 (GeneID 56990)	0.342	2.07	0.503	0.4	0.05
SKP1 (GeneID 6500)	-0.172	1.6	-0.32	-0.0153	-0.475
PLPP4 (GeneID 196051)	-0.257	3.52	-0.347	-0.241	-0.199
TRPM4 (GeneID 54795)	-0.476	1.55	-0.432	-0.48	-0.248
CCP110 (GeneID 9738)	-0.413	1.93	-0.203	-0.22	-0.533
EFR3B (GeneID 22979)	-0.416	3.23	-0.195	-0.46	-0.408
SELE (GeneID 6401)	0.784	1.55	0.757	0.791	0.67
COPS7A (GeneID 50813)	-0.558	2.05	-0.528	-0.286	-0.443
PARP6 (GeneID 56965)	-0.72	3.83	-0.733	-0.582	-0.748
TM9SF3 (GeneID 56889)	-0.714	1.67	-0.483	-0.622	-0.754
PTPN21 (GeneID 11099)	-0.0437	2.09	-0.118	-0.326	0.234
SHB (GeneID 6461)	-0.0129	1.97	0.271	-0.482	-0.17
OR7E35P (GeneID 391632)	-0.307	1.9	-0.346	-0.454	-0.192
HMGCLL1 (GeneID 54511)	0.0785	2.01	-0.0175	0.158	-0.0241
FBN3 (GeneID 84467)	0.548	2.12	0.521	0.531	0.324
EMC3 (GeneID 55831)	-0.507	3.33	-0.689	-0.405	-0.12
KLF1 (GeneID 10661)	0.388	2.06	0.667	0.703	0.00256
CHST5 (GeneID 23563)	-0.242	3.82	0.0425	-0.396	-0.333
PALS2 (GeneID 51678)	0.31	1.09	0.558	0.253	0.307
MYT1 (GeneID 4661)	0.191	1.75	0.545	0.544	-0.227
MRPS6 (GeneID 64968)	0.423	3.31	0.447	0.0968	0.671
GHRL (GeneID 51738)	0.202	3.05	0.219	0.0788	0.205
RNF181 (GeneID 51255)	-0.737	3.3	-0.525	-0.599	-0.648
ISCU (GeneID 23479)	-0.382	5.88	-0.23	-0.432	-0.49
GPRC6A (GeneID 222545)	0.244	2.69	0.255	0.352	0.128
CCHCR1 (GeneID 54535)	-0.581	3.2	-0.477	-0.511	-0.548
PGRMC2 (GeneID 10424)	-0.0153	1.94	0.0905	0.0249	-0.168
HS3ST1 (GeneID 9957)	0.565	1.35	0.391	0.697	0.673
NELFE (GeneID 7936)	-0.0608	4.35	0.193	-0.08	-0.33
PRRG3 (GeneID 79057)	-0.473	3.27	-0.469	-0.542	-0.382
RELB (GeneID 5971)	-0.309	2.37	0.00762	0.00809	-0.319
PRPS1L1 (GeneID 221823)	0.326	1.35	0.343	0.555	-0.502
ZNF93 (GeneID 81931)	0.0576	1.71	-0.197	-0.0927	0.127
GNRH2 (GeneID 2797)	0.145	1.2	-0.161	0.0995	0.269
PMS1 (GeneID 5378)	0.000322	2.13	0.0658	-0.537	-0.2
SLA (GeneID 6503)	-0.102	5.11	-0.116	-0.131	-0.0713
KCNH4 (GeneID 23415)	-0.162	3.58	-0.0357	-0.0474	-0.373

An excerpt taken from the entries so far, for reference:
gene knocked down	mean correlation with KSR1 profile	mean distance from KSR1 profile	KSR1 correlation, replicate 1	KSR1 correlation, replicate 2	KSR1 correlation, replicate 3
FBN3 (GeneID 84467)	0.548	2.12	0.521	0.531	0.324
EMC3 (GeneID 55831)	-0.507	3.33	-0.689	-0.405	-0.12
KLF1 (GeneID 10661)	0.388	2.06	0.667	0.703	0.00256
CHST5 (GeneID 23563)	-0.242	3.82	0.0425	-0.396	-0.333
PALS2 (GeneID 51678)	0.31	1.09	0.558	0.253	0.307
